# Test results: the supplement of paper PMC9744312
# Counter-ions that a name gives are not always drawn. Some of the results follow. The data scatter; read single values as rough.
# System: Peyronie's disease tunica albuginea primary fibroblasts
# Test: inhibition of TGF-beta1-induced alpha-SMA expression (myofibroblast transformation), relative to TGF-beta1-only and untreated controls; higher = stronger inhibition of myofibroblast transformation
# Details: 10 µM; TGF-beta1 10 ng/mL; 72 h
row,SMILES,inhibition of TGF-beta1-induced alpha-SMA expression [%]
1,CCOC(=O)[C@H](CCc1ccccc1)N[C@@H](C)C(=O)N1[C@H](C(=O)O)C[C@@H]2CCC[C@@H]21 [Ramipril],0.239
2,O=C(O)c1cc(=O)c2ccccc2o1 [Chromocarb],-12.8
3,NS(=O)(=O)c1cc(C(=O)O)c(NCc2ccco2)cc1Cl [Furosemide],8.15
4,NCCCC[C@H](NC(=O)[C@@H]1CCCN1C(=O)[C@@H]1CSSC[C@H](NC(=O)CNC(=O)CNC(=O)CN)C(=O)N[C@@H](Cc2ccc(O)cc2)C(=O)N[C@@H](Cc2ccccc2)C(=O)N[C@@H](CCC(N)=O)C(=O)N[C@@H](CC(N)=O)C(=O)N1)C(=O)NCC(N)=O [Terlipressin Acetate],32.4
5,CCOc1cc([C@@H](CS(C)(=O)=O)N2C(=O)c3cccc(NC(C)=O)c3C2=O)ccc1OC,97.9
6,CC1=C(C(=O)OC(C)C)C(c2cccc([N+](=O)[O-])c2)C(C(=O)OC2CN(C(c3ccccc3)c3ccccc3)C2)=C(N)N1 (stereo unspecified) [Azelnidipine],13.2
7,Cc1cc(C2CCCCC2)n(O)c(=O)c1 [Ciclopirox],> 100
8,Cc1cc(C2CCCCC2)n(O)c(=O)c1 [Ciclopirox ethanolamine],97.2
9,COc1cc(C(=O)NS(=O)(=O)c2ccccc2C)ccc1Cc1cn(C)c2ccc(NC(=O)OC3CCCC3)cc12 [Zafirlukast],-15.7
10,Nc1ccccc1NC(=O)c1ccc(CNC(=O)OCc2cccnc2)cc1 [Entinostat (MS-275)],83.5
11,CN(C)C(=O)COC(=O)Cc1ccc(OC(=O)c2ccc(NC(=N)N)cc2)cc1 [Camostat Mesilate],-25.6
12,N=C(N)NC(=O)c1nc(Cl)c(N)nc1N [Amiloride HCl dihydrate],3.76
13,N=C(N)NC(=O)c1nc(Cl)c(N)nc1N [Amiloride HCl],11.5
14,CCCCOC(=O)c1ccc(N)cc1 [Butamben],-15.4
15,N[C@@H]1CCCCN(c2c(F)cc3c(=O)c(C(=O)O)cn(C4CC4)c3c2Cl)C1 [Besifloxacin HCl],69.7
16,CC[C@H]1OC(=O)[C@H](C)[C@@H](O[C@H]2C[C@@](C)(OC)[C@@H](O)[C@H](C)O2)[C@H](C)[C@@H](O[C@@H]2O[C@H](C)C[C@H](N(C)C)[C@H]2O)[C@](C)(OC)C[C@@H](C)C(=O)[C@H](C)[C@@H](O)[C@]1(C)O [Clarithromycin],27.2
17,NC(=O)Cc1cccc(C(=O)c2ccccc2)c1N [Nepafenac],11.8
18,CCCCC1=NC2(CCCC2)C(=O)N1Cc1ccc(-c2ccccc2-c2nnn[nH]2)cc1 [Irbesartan],39.7
19,COCC1=C(C(=O)OC(C)OC(=O)OC(C)C)N2C(=O)[C@@H](NC(=O)/C(=N\OC)c3csc(N)n3)[C@H]2SC1 (stereo partly specified) [Cefpodoxime proxetil],30.1
20,COc1ccc([C@H]2CNC(=O)C2)cc1OC1CCCC1 [S- (+)-Rolipram],36.4
21,COc1cc(Cc2cnc(N)nc2N)cc(OC)c1OC [Trimethoprim],28
22,CN(C(=O)c1ccc(F)cc1C(F)(F)F)C1CCN(c2nnc(-c3ccnn3C)c3ccccc23)CC1,18.8
23,CNCC[C@H](Oc1cccc2ccccc12)c1cccs1 [Duloxetine],73.7
24,CNCC[C@H](Oc1cccc2ccccc12)c1cccs1 [Duloxetine HCl],63.5
25,CO[C@@]1(NC(=O)Cc2cccs2)C(=O)N2C(C(=O)O)=C(COC(N)=O)CS[C@@H]21 [Cefoxitin sodium],15.9
26,CC1(COc2ccc3c(c2)ncn3-c2ccc3cccc(N4CCC(N)CC4)c3n2)COC1,95.3

row,SMILES,inhibition of TGF-beta1-induced alpha-SMA expression [%]
1,OC[C@@H](O)[C@H](O)[C@@H](O)CO [Xylitol],-35.5
2,COc1cc2c(cc1OC)C(=O)C(CC1CCN(Cc3ccccc3)CC1)C2 (stereo unspecified) [Donepezil HCl],8.84
3,COc1cc2c(cc1OC)C(=O)C(CC1CCN(Cc3ccccc3)CC1)C2 (stereo unspecified) [Donepezil],49.7
4,CN(C)c1ccc2nc3ccc(=[N+](C)C)cc-3sc2c1 [Methylene Blue],> 100
5,COc1ccc(C2C(=O)c3ccccc3C2=O)cc1 [Anisindione],26.5
6,Cc1cccc(C)c1NC(=O)C1CCCCN1C (stereo unspecified) [Mepivacaine HCl],6.11
7,Cc1cccc(C)c1NC(=O)C1CCCCN1C (stereo unspecified) [Mepivacaine],21.2
8,CN1C(C(=O)Nc2ccccn2)=C(O)c2sccc2S1(=O)=O [Tenoxicam],26.1
9,N#Cc1ccc2[nH]cc(CCCCN3CCN(c4ccc5oc(C(N)=O)cc5c4)CC3)c2c1 [Vilazodone HCl],-21.9
10,Cc1ncc([N+](=O)[O-])n1CC(O)CCl (stereo unspecified) [Ornidazole],26.8
11,N=C(N)N [Guanidine HCl],38.2
12,C=C[C@H]1CN2CC[C@H]1C[C@@H]2[C@@H](O)c1ccnc2ccc(OC)cc12 [Quinidine sulfate],48.3
13,Cc1c(C(N)=O)cc([N+](=O)[O-])cc1[N+](=O)[O-] [Dinitolmide],-18.1
14,Cn1c(=O)c2[nH]cnc2n(C)c1=O [Aminophylline],-3.68
15,CS(=O)(=O)c1ccc(C2=C(c3ccccc3)C(=O)OC2)cc1 [Rofecoxib],31.6
16,CN(C)CCC=C1c2ccccc2CCc2ccccc21 [Amitriptyline HCl],27.7
17,Cc1ccnc2c1NC(=O)c1cccnc1N2C1CC1 [Nevirapine],-5.91
18,C#C[C@]1(O)CC[C@H]2[C@@H]3CCc4cc(OC5CCCC5)ccc4[C@H]3CC[C@@]21C [Quinestrol],46.5
19,Cc1[nH]c(=O)c(C#N)cc1-c1ccncc1 [Milrinone],-9.25
20,FC(F)(F)c1ccc(CNc2ccc(Cc3c[nH]c4ncc(Cl)cc34)cn2)cn1 [Pexidartinib (PLX3397)],-4.07
21,CC(=O)N[C@@H](CCC(N)=O)C(=O)O [Aceglutamide],99.9
22,O=NO [Sodium Nitrite],11.4
23,CC(=O)NO [Acetohydroxamic acid],-16.1
24,COc1ccc(CCNCC(O)COc2cccc(C)c2)cc1OC (stereo unspecified) [Bevantolol hydrochloride],27.4
25,CC(C)(Oc1ccc(Cl)cc1)C(=O)O [Clofibric Acid],6.64

# Looked up one by one from the entries so far, 2 records:
row,SMILES,inhibition of TGF-beta1-induced alpha-SMA expression [%]
17,NC(=O)Cc1cccc(C(=O)c2ccccc2)c1N [Nepafenac],11.8
25,CC(C)(Oc1ccc(Cl)cc1)C(=O)O [Clofibric Acid],6.64
